Only a part is listed here, and it is no random draw.
compound: COC(=O)C#Cc1ccccc1 [methyl 3-phenylpropiolate]; experiment: log2 ratio of iodoacetamide-alkyne labeling of the cysteine site, DMSO over compound (competition); higher = stronger covalent engagement of the cysteine by the compound, active = 1 or more; conditions: 500 µM; treatment time 1 h; system: HEK293T cell lysate
Procedure, shortened: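 HEK293T lysate (2 mg/mL) was incubated with electrophile (500 µM) or vehicle for 1 h at ambient temperature and then with iodoacetamide alkyne for 1 h. Labelled proteins were clicked to sCIP-TMT reagents, pooled, digested, enriched on streptavidin and measured by Orbitrap Eclipse LC-MS/MS with FAIMS, with FragPipe quantification. The per-cysteine log2 competition ratio is mean control-channel reporter intensity over mean compound-channel reporter intensity. Across three replicates with duplicate channels, cysteines quantified in only one replicate were excluded.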

By UniProt entry, the sequences of proteins in these tests, tags left out. Where a name states a change or a piece, a line headed by the entry shows the natural chain unless it says otherwise.
UniProt Q14202: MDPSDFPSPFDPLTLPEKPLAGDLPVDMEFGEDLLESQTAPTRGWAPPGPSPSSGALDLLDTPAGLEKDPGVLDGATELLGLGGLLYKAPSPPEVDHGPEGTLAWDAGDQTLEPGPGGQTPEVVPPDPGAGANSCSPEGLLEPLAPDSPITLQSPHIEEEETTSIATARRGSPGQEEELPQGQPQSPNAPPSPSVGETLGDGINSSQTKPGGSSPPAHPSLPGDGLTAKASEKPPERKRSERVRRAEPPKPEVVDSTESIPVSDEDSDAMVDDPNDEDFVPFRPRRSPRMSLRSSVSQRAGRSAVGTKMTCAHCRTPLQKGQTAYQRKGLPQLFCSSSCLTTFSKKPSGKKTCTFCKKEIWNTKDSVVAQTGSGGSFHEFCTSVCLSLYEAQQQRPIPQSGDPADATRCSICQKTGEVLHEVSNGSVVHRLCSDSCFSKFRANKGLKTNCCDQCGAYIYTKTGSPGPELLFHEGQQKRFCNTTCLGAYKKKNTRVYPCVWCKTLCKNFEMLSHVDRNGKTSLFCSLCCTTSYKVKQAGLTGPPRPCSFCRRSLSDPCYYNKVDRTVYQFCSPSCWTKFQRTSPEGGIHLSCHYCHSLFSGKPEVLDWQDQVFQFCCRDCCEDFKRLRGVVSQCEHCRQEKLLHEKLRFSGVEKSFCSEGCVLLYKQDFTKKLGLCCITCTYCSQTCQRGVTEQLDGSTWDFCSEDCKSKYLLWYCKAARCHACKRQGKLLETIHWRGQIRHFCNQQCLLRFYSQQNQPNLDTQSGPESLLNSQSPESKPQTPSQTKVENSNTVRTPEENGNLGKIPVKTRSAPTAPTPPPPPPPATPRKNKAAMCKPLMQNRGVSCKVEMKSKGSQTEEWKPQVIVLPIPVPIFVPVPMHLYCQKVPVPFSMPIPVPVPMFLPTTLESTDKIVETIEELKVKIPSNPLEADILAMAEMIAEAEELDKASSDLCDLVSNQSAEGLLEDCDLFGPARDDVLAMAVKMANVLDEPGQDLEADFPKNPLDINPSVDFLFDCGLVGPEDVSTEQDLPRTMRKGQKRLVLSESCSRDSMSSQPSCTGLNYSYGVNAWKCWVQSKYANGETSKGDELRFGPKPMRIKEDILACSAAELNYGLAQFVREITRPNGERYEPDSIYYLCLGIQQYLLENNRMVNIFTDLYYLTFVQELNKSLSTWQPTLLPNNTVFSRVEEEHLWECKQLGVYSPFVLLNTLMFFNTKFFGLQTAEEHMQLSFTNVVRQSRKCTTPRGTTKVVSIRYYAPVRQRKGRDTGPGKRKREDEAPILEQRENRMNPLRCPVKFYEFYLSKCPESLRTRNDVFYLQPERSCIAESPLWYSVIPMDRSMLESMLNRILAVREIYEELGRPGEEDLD
UniProt Q13642: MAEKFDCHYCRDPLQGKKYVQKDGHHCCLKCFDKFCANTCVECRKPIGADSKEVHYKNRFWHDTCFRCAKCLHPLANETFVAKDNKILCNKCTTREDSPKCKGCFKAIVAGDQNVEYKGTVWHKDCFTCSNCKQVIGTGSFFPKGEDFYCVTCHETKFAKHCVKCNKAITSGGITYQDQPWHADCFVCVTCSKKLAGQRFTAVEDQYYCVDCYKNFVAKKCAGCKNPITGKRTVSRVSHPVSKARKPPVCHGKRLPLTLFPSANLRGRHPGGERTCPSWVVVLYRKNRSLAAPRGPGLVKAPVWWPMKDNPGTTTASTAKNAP
UniProt Q14807: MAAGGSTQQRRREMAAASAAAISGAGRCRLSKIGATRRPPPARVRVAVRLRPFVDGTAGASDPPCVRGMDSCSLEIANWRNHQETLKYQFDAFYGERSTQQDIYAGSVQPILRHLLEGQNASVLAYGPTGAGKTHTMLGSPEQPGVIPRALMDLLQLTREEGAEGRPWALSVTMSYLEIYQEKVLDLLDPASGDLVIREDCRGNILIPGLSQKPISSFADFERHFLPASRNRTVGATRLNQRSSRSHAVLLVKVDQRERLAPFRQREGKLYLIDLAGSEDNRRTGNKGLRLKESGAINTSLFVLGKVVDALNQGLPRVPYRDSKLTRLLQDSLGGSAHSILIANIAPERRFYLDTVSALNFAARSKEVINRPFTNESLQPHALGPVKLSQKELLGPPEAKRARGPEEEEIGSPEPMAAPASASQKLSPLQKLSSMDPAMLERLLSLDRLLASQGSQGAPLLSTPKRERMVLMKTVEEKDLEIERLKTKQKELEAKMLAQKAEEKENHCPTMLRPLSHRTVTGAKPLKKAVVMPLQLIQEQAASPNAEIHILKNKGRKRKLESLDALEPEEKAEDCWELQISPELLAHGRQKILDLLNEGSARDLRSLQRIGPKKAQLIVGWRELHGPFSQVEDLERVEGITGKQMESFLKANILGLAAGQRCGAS
UniProt Q14790: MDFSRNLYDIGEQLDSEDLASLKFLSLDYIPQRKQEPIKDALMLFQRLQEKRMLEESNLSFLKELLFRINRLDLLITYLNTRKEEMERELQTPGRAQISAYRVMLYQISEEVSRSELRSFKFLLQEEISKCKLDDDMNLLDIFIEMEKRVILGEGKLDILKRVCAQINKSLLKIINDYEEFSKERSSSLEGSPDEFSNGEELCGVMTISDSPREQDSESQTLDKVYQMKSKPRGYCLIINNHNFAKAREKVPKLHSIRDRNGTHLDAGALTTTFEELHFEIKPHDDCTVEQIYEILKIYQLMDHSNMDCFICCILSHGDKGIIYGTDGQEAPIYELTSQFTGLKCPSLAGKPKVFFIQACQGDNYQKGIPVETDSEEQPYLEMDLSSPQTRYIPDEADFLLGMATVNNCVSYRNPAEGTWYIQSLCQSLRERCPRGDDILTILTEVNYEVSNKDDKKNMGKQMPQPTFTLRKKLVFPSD
UniProt Q14C86: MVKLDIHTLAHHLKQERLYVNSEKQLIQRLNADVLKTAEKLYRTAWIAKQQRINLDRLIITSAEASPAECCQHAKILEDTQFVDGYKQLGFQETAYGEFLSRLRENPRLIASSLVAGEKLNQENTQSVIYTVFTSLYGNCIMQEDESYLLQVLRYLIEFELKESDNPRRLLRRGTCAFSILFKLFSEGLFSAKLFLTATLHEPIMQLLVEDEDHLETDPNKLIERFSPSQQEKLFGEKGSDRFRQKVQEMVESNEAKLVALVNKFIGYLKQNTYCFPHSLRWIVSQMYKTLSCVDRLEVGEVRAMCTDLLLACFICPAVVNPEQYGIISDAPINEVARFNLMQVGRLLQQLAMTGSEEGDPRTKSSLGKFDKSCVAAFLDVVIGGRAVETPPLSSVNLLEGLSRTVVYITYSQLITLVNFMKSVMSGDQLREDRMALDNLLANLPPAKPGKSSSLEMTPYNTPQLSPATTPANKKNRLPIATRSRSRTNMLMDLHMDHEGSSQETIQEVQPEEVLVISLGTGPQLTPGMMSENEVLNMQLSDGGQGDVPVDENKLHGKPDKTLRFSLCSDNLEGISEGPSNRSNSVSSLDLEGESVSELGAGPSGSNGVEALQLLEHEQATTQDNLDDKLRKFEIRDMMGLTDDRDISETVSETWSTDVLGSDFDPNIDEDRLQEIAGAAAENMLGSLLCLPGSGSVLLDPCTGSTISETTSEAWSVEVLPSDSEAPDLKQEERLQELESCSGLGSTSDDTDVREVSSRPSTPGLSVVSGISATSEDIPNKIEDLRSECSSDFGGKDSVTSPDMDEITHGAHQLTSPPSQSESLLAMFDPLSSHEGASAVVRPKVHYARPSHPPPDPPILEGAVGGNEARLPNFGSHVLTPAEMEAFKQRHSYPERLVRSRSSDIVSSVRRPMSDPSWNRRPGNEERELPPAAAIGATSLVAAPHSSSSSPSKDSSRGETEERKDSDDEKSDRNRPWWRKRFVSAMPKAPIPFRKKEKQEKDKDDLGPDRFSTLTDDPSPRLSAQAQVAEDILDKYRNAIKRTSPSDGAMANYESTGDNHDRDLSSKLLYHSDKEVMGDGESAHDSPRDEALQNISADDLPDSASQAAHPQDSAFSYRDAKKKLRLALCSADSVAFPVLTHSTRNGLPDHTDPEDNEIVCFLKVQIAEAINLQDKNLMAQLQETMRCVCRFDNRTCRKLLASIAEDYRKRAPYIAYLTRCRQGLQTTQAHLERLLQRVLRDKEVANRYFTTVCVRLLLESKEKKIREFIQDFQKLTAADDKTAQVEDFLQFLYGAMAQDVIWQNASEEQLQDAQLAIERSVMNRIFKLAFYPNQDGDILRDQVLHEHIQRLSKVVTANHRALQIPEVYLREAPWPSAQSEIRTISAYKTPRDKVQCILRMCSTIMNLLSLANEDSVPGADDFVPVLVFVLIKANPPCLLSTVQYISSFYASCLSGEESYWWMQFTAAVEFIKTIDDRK
UniProt Q14974, whole entry, looked up: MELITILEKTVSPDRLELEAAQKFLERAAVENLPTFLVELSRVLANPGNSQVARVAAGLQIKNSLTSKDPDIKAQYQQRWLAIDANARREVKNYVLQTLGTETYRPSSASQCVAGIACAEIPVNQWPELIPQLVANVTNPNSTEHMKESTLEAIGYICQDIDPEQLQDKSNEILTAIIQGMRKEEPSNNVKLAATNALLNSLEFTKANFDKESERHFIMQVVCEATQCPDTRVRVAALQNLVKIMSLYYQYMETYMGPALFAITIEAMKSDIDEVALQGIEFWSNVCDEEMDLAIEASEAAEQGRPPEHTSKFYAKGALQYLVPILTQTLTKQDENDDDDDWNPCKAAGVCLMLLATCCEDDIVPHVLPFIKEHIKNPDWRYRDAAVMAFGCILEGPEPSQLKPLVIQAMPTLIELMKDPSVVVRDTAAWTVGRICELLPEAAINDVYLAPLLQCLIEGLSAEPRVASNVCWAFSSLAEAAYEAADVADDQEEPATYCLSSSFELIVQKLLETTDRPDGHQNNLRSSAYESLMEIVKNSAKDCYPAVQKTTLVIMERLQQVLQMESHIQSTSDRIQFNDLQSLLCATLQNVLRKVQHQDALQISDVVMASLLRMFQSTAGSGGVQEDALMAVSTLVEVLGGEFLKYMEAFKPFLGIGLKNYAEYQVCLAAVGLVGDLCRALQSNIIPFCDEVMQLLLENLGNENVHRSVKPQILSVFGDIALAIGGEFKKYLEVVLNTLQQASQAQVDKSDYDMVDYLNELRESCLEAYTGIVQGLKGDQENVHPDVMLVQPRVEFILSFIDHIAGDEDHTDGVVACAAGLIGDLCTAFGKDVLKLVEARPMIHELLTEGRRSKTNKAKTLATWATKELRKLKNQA
UniProt Q13885, whole entry, looked up: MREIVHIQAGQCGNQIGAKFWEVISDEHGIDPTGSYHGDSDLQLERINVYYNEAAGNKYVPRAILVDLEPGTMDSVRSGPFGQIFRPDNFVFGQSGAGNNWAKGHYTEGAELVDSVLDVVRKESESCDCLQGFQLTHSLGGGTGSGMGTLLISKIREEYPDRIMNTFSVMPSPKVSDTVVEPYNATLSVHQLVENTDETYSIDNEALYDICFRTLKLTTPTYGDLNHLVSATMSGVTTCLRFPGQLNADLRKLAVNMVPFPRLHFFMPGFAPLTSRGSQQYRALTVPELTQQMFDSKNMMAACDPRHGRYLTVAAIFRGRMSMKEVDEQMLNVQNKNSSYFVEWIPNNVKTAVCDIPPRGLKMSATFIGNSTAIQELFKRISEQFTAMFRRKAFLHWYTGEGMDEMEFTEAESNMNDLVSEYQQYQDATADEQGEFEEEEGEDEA
UniProt Q13557, whole entry, looked up: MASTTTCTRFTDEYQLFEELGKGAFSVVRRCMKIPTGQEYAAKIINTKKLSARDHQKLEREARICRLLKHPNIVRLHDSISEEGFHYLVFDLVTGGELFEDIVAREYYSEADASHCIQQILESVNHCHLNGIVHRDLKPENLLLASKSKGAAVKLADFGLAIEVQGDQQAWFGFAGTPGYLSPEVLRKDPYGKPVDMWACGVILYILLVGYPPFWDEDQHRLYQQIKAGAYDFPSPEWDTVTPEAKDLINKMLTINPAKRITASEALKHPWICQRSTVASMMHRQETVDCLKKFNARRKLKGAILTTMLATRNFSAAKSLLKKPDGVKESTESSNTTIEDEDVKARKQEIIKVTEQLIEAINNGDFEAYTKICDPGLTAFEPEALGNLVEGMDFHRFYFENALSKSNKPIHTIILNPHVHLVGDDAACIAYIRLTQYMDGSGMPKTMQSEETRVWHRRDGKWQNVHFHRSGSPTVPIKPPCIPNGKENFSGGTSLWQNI

Row | Target | log2 ratio of iodoacetamide-alkyne labeling
1 | ZMYM3 C1106 (UniProt Q14202) | inactive: 0.144
2 | FHL1 C188 (UniProt Q13642) | inactive: 0.313
3 | RBM39 C303 (UniProt Q14498) | inactive: 0.171
4 | NCAPH C402 (UniProt Q15003) | inactive: 0.622
5 | FHL1 C31 (UniProt Q13642) | inactive: 0.286
6 | KIF22 C575 (UniProt Q14807) | inactive: 0.118
7 | CASP8 C360 (UniProt Q14790) | active: 1.2
8 | GAPVD1 C741 (UniProt Q14C86) | inactive: 0.233
9 | CHD4 C1468 (UniProt Q14839) | inactive: 0.211
10 | TTLL12 C126 (UniProt Q14166) | inactive: -0.117
11 | KPNB1 C817 (UniProt Q14974) | inactive: 0.76
12 | UniProt Q13885_C303 | inactive: 0.488
13 | EIF3A C404 (UniProt Q14152) | inactive: 0.447
14 | UniProt Q13557_C273 | inactive: -0.0989
15 | DYNC1H1 C3089 (UniProt Q14204) | inactive: 0.487

Reference: the supplement of paper PMC11006884
